Experimental findings from article PMC7819943, “Rice protein-binding microarrays: a tool to detect cis-acting elements near promoter regions in rice” are described below.

Protein sequences, listed by entry. Tags and fused reporters are not part of them.
UniProt Q0JBA9, entry or part of it: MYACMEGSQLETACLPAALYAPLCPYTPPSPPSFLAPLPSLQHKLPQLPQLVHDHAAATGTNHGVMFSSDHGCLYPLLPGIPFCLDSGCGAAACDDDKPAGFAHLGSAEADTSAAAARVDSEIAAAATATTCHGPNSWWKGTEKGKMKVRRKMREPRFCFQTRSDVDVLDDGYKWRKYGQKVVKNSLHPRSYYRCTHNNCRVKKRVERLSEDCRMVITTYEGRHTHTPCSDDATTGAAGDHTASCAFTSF

The other results are listed elsewhere or left out.

For this test, the target named is OsWRKY34 (Oryza sativa, UniProt Q0JBA9 1-250). Briefly: protein-binding microarray (RPBM); PBS, 2% BSA, 51.3 ng/ul salmon testes DNA, 50 uM zinc acetate, 200 nM TF, 25 C, 1 h; high values mean tight binding. The following applies: protein: recombinant; tags: N-terminal polyhistidine and DsRed monomer fusion (pET32a); label: CyDye5-dUTP incorporated in the synthesized complementary strand; 3' TTTTT single-stranded linker to array surface; dsDNA, one strand shown. Put shortly:
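The binding signal for each feature is its fluorescence intensity in arbitrary units. An Axon 4000B scanner was used to read a custom Agilent array that had been made double-stranded with Cy5-dUTP primer extension, blocked with 2% BSA, incubated at 25 °C for 1 h with 200 nM protein in PBS, 2% BSA, salmon testes DNA and 50 µM zinc acetate, and washed. The protein was an N-terminal polyhistidine–DsRed transcription factor fusion from E. coli BL21-CodonPlus, purified on Ni–NTA.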
Consider “ACCCTCCGCACTTCATCTCGCATCGCGTTCGCCGCCGCTCCGGAGTCACCTAGTGCAG”, for which the binding signal is 14200 fluorescence intensity (a.u.).

Consider “GTCTACTATCCTCTTTCATTGTCTTTTTGTTGGTTGGTTTCGGAGTCACCTAGTGCAG”, for which the binding signal was 17600 fluorescence intensity (a.u.). To “AATCAGAATATTACCTTCTTGTATTTGTTCTCTGTAGGAACGGAGTCACCTAGTGCAG” belongs 8870 fluorescence intensity (a.u.); to “CCGGTCTAAGGGTACTCATATAAATTTTTTTTCTTTTGTTCGGAGTCACCTAGTGCAG”, 8560 fluorescence intensity (a.u.); to “ACACATTCAATTTTATTCATATATCCCTTACCCTTTCATTCGGAGTCACCTAGTGCAG”, 8580 fluorescence intensity (a.u.). To “GGTTTGGAGTTTGGACTCGGGTCGGTGTTGCGCTTTGCCCCGGAGTCACCTAGTGCAG” belongs 8110 fluorescence intensity (a.u.); to “AAAACAAACTCTGAGTTTCCGTGCCAACGTTTGACTATCCCGGAGTCACCTAGTGCAG”, 8320 fluorescence intensity (a.u.). To “TTTGTTTTGTTCGTTACTCTGAAACAACCAAGTTGTTTTTCGGAGTCACCTAGTGCAG” belongs 9090 fluorescence intensity (a.u.).

Regarding “CAGGGGTATGGTCGGATTCCATATTCTAACCTATATTTTCCGGAGTCACCTAGTGCAG”, the binding signal was 8740 fluorescence intensity (a.u.). To “GTCCCAATCTGAATTTCCGGTGTTCAGTTCTACATCGCTTCGGAGTCACCTAGTGCAG” belongs 8630 fluorescence intensity (a.u.). To “TAGTTAGGTGGCCATTCTTCTCCATCTCCGGCGAGTTGATCGGAGTCACCTAGTGCAG” belongs 8320 fluorescence intensity (a.u.); to “GTGTCGTCCTAGCCTCCGGTCGCATTCGGCCACATCCAGCCGGAGTCACCTAGTGCAG”, 8170 fluorescence intensity (a.u.); to “AGGGGAAATCTCGTTTTTTTCATGCATTTTGCATTGTACTCGGAGTCACCTAGTGCAG”, 10100 fluorescence intensity (a.u.). To “ACCGTATAATTTTGCAAAATGATCCCTGTTTTGGACTTGGCGGAGTCACCTAGTGCAG” belongs 8270 fluorescence intensity (a.u.); to “GGGATTTGGTGGCTGCTCGCCTCTCGCGTTTCTTTTGCTGCGGAGTCACCTAGTGCAG”, 10200 fluorescence intensity (a.u.); to “CTCTGGTTTTAATAGTTGTGGTCAGTAGTTAAGGAACTTACGGAGTCACCTAGTGCAG”, 9140 fluorescence intensity (a.u.). Turning to “TGTTTTGTGTTGGTTTATGTTTCTTTGAATGTGAGTTGACCGGAGTCACCTAGTGCAG”, the binding signal was 9220 fluorescence intensity (a.u.). To “AAATTAGTTTTGCAGAGAGTACCAAGTTTGATTATGTCTTCGGAGTCACCTAGTGCAG” belongs 8320 fluorescence intensity (a.u.). The figure for “ATGATAGGTCCTGGACTCACAAGTTATTGAGAACGGCACGCGGAGTCACCTAGTGCAG” is 50900 fluorescence intensity (a.u.); for “GTGGGTTTCTAGCATCATAGGGGTATTGTAGTAACTTCCTCGGAGTCACCTAGTGCAG” it is 17400 fluorescence intensity (a.u.). Turning to “ATGGGGTTGACTTTTTTTTAGGGATTGCTAGGTGCACCGTCGGAGTCACCTAGTGCAG”, the binding signal was 20100 fluorescence intensity (a.u.).

Consider “GATCCTCGGTTCCTCACCACACATCCTACCTAACAAACTCCGGAGTCACCTAGTGCAG”, for which the binding signal was 8730 fluorescence intensity (a.u.). The figure for “AACGGCAGCAGATCCACCAAACCCCACACCCTCTCCAAATCGGAGTCACCTAGTGCAG” is 8600 fluorescence intensity (a.u.). “TTTTTCCTATTCCTCTATTTTTTTTACAACCCTGCGATTCCGGAGTCACCTAGTGCAG”: the binding signal was 9990 fluorescence intensity (a.u.).

As for “GCTAGTGGTGTTTAGTTTAGAAATCCTTATTGTCAGTATACGGAGTCACCTAGTGCAG”, the binding signal was 8370 fluorescence intensity (a.u.). The figure for “ATTGGATCCGGGGAGGAGGAGGTGGGGTTCGGTTTCGTGCCGGAGTCACCTAGTGCAG” is 11600 fluorescence intensity (a.u.). The figure for “GTGCGGTGATGTTTTTCTTCCTGTTGCATCATTTTAACTTCGGAGTCACCTAGTGCAG” is 11300 fluorescence intensity (a.u.).

For “CACCACCCACTCGACGCCGCCTTGCCTCACCACTGCTGCCCGGAGTCACCTAGTGCAG”, the binding signal was 9620 fluorescence intensity (a.u.). The figure for “AGCTGCCATGGCGATTCCTGGTTCGTTGTTCTATCGCTCACGGAGTCACCTAGTGCAG” is 8200 fluorescence intensity (a.u.); for “GGGGATAACTTGTGGGAAATTGGGTAGAAAGGGAGTTTTGCGGAGTCACCTAGTGCAG” it is 9850 fluorescence intensity (a.u.); for “CACCGCCGTCCACCGTCATCCTTGACCGCCGCCGCTGGCCCGGAGTCACCTAGTGCAG” it is 11400 fluorescence intensity (a.u.). Regarding “CCTTTCATTGTGTGCCCGTTCTGTGTCTACCTTTAATTTACGGAGTCACCTAGTGCAG”, the binding signal was 11400 fluorescence intensity (a.u.). The figure for “TCTCTTAGCTAAAGTTCTTTATGTTTGACTAAGTTTATCGCGGAGTCACCTAGTGCAG” is 9420 fluorescence intensity (a.u.); for “TACTGTCTGTCAACACACTTCATGATTTCTCATCAAATATCGGAGTCACCTAGTGCAG” it is 10400 fluorescence intensity (a.u.). To “AATCAACTTCAGGTTGTCTTCGAGATGCATTTGTCCTGCCCGGAGTCACCTAGTGCAG” belongs 9590 fluorescence intensity (a.u.); to “GACACACATCTCCGTACCAACGTACCTAGTCAAACACGCGCGGAGTCACCTAGTGCAG”, 8270 fluorescence intensity (a.u.).

Take “AAAAAAGTCCACACAGATCCATTCCTCACATTTTACATTTCGGAGTCACCTAGTGCAG”: the binding signal is 9510 fluorescence intensity (a.u.). For the sequence “ATAAACATAGAGGGTTGTTATTTTGCTAGTTATCATTTATCGGAGTCACCTAGTGCAG”, the binding signal was 8930 fluorescence intensity (a.u.). To “CTATAGCACAACGACCTTATTCTATCTCTCGTCAACGCTTCGGAGTCACCTAGTGCAG” belongs 9000 fluorescence intensity (a.u.). To “CCCTCACATGTGTTGTGTTTTGCTTGCTTGTGTGATTAGTCGGAGTCACCTAGTGCAG” belongs 11600 fluorescence intensity (a.u.); to “TCTTTCCTTATTTTCCCATGTTATTTTTCCATTTTCCCCTCGGAGTCACCTAGTGCAG”, 9620 fluorescence intensity (a.u.); to “ATTTTCTTTAAGAGATGTTCTTGTCTGTTGTCAGGTTTGTCGGAGTCACCTAGTGCAG”, 9670 fluorescence intensity (a.u.).
